{"source": "patent US7666608B2", "about": "“Methods for determining drug responsiveness” (The Trustees of the University of Pennsylvania, priority 2002, dated 2010)", "key": {"[1]": {"tested_on": "endogenous human SAA1 and SAA2 genes", "assay": "RT-PCR of endogenous SAA1 and SAA2 mRNA in HepG2 cells", "assay_type": "cell-based", "details": "100 nM dexamethasone alone, 24 h"}, "human SAA2 promoter": {"tested_on": "human SAA2 promoter", "assay": "SAA2 promoter luciferase reporter construct in HepG2 cells", "assay_type": "cell-based", "source_text": "The pGL2-SAA2pt construct, which contains 1.2 kb of the human SAA2 promoter upstream of a luciferase reporter was generated as follows. A 1196 bp of the promoter region and 22 bp of the first exon of the human acute phase SAA2 gene was amplified by PCR with the introduction of MluI and XhoI restriction sites at the 5′ and 3′ ends respectively (5′ oligonucleotide: 5′ […]-TACTTCCT-′3′ (SEQ ID NO: 8); 3′ oligonucleotide: 5′-[…]-[…]-3′ (SEQ ID NO:9). The PCR product was subsequently cloned into the multiple-cloning site of the pGL2-Basic vector (Promega, Madison, Wis., USA) which is located upstream of a luciferase reporter gene.\nConstructs pGL2-SAA2[0.7] and pGL2-SAA2[0.25] containing 700 and 239 bases of promoter sequence respectively, were generated from pGL2-SAA2pt by PCR using the forward primers 5′-[…]-3′ (SEQ ID NO:14) and 5′-[…]-3′ (SEQ ID NO:15) respectively, and the reverse primer HSAAPR.\n(§1) Human HepG2 hepatoma cells (ATCC) were cultured in DMEM containing 10% FCS, gentamycin, sodium pyruvate and non-essential amino acids (Gibco BRL). Cells were seeded into 24 well plates 24 hours prior to transfection using FuGENE (Roche Biomolecular) as described in Jensen et al. (2000) J. Immunol. 164:5277-86. Cells transfected with SAA promoter luciferase reporter constructs and renilla control plasmid, were incubated for 16 to 20 hours before replacement of culture medium with fresh medium alone or fresh medium containing 10 ng/ml cytokines and/or dexamethasone and/or RU486 (Mifepristone). IL-1 was purchased from Peprotech. IL-6 was obtained from AstraZeneca. Dexamethasone and RU486 were obtained from Sigma.\n(§2) Cells were harvested at various times post-treatment, washed in PBS and resuspended in Passive Lysis Buffer (Promega, Madison, Wis.). Lysates were assayed for luciferase and renilla activity using the LLR and Stop and Glo reagents (Promega) in a dual injection luminometer (Turner Designs, Sunnyvale, Calif.). Each treatment was carried out in triplicate and the mean ratio of luciferase to renilla activity and standard deviations were calculated. The ratios are expressed relative to untreated controls and are representative of three independent experiments."}, "[2]": {"tested_on": "chimeric and GRE mutant SAA1/SAA2 promoters", "assay": "Chimeric and GRE mutant SAA promoter luciferase reporter constructs in HepG2 cells", "assay_type": "cell-based, human"}, "human SAA1 promoter": {"tested_on": "human SAA1 promoter", "assay": "SAA1 promoter luciferase reporter construct in HepG2 cells", "assay_type": "cell-based", "source_text": "The pGL2-SAA1pt construct was generated as follows. The proximal 3.1 kb of genomic sequence upstream of the human SAA1 transcription start site plus the full 37 bases of 5′UTR was amplified by polymerase chain reaction (PCR) from human genomic DNA (Roche Biomolecular) using forward and reverse primers, HSAA1PF (5′-GAATTCACGCGTTT-[…]-3′) (SEQ ID NO:10) and HSAAPR (5′-[…]-GCTGAGCTGCGGG-3′) (SEQ ID NO:11), that incorporate Mlu1 and Nco1 restriction sites, respectively. The product was digested with Mlu1 and Nco1 and directionally cloned into a pGL2 vector which had been modified to include an Nco1 site at the start of the luciferase coding sequence and contains the human SAA2 3′UTR (Longley et al. (1999) J. Immunol. 163:4537-45).\nConstructs pGL2-SAA1[0.7] and pGL2-SAA1[0.25] containing 704 and 233 bases of promoter sequence respectively, were generated from pGL2-SAA1pt by PCR using the forward primers 5′-[…]-CAGCCTTGACC-3′ (SEQ ID NO:12) and 5′-GAATTCACGCGTGGTCT-CCTGCCTG-3′ (SEQ ID NO:13) respectively, and the reverse primer HSAAPR.\nas §1, §2"}, "[3]": {"details": "HepG2 co-transfected with 5, 25 or 50 ng/well CMX-GR, dexamethasone up to 5 μM, no cytokines, 4 h"}, "[4]": {"details": "50 nM dexamethasone in the presence of IL-1 plus IL-6, 4 h"}, "[5]": {"details": "50 nM dexamethasone, with or without IL-1 plus IL-6, 4 h"}}, "note": "For at least one compound, name, drawing or mass did not settle the structure."}
{"smiles": "C[C@@H]1C[C@H]2[C@@H]3CCC4=CC(=O)C=C[C@]4(C)[C@@]3(F)[C@@H](O)C[C@]2(C)[C@@]1(O)C(=O)CO", "note": "[dexamethasone]", "values": [{"measurement": "RT-PCR products derived from SAA1 or SAA2 mRNA", "setting": "[1]", "result": "not detected"}, {"measurement": "enhancement of cytokine driven transcriptional readout from the SAA2 promoter", "setting": "human SAA2 promoter; HepG2, pGL2-SAA2pt, 10 nM-1 μM dexamethasone with IL-1 plus IL-6 (10 ng/ml each), 4 h", "result": "could not be enhanced"}, {"measurement": "response of SAA2 promoter to dexamethasone alone", "setting": "human SAA2 promoter; HepG2, pGL2-SAA2pt, 10 nM-1 μM, no cytokines, 4 h", "result": "Neither promoter showed any response"}, {"measurement": "effect on SAA2 promoter activity", "setting": "human SAA2 promoter; HepG2, pGL2-SAA2pt, 50 nM dexamethasone alone or with cytokines, any assay condition, 3-24 h", "result": "no measurable effect"}, {"measurement": "response of SAA2 promoter to dexamethasone alone with GR over-expression", "setting": "human SAA2 promoter; [3]", "result": "remained non-responsive"}, {"measurement": "dexamethasone dependent enhancement of cytokine driven SAA2 readout with GR over-expression", "setting": "human SAA2 promoter; HepG2 with highest GR construct level and highest dexamethasone concentration, IL-1 plus IL-6, 4 h", "result": "could not bring about a dexamethasone dependent enhancement"}, {"measurement": "capacity of GRED construct (SAA2 promoter with SAA1-like GRE) to respond to dexamethasone", "setting": "[2]; [4]", "result": "“gained” this property"}, {"measurement": "capacity of GREI construct (SAA1 promoter with disrupted GRE) to respond to dexamethasone", "setting": "[2]; [4]", "result": "“lost” the capacity to respond"}, {"measurement": "responsiveness of chimeric construct SAA1/1 to dexamethasone", "setting": "[2]; [4]", "result": "responsive"}, {"measurement": "responsiveness of chimeric construct SAA1/2 to dexamethasone", "setting": "[2]; [4]", "result": "responsive"}, {"measurement": "responsiveness of chimeric construct SAA2/1 to dexamethasone", "setting": "[2]; [5]", "result": "non-responsive"}, {"measurement": "responsiveness of chimeric construct SAA2/2 to dexamethasone", "setting": "[2]; [5]", "result": "non-responsive"}, {"measurement": "enhancement of cytokine driven SAA1 promoter transcriptional activity", "setting": "human SAA1 promoter; HepG2, pGL2-SAA1pt, 10 nM-1 μM dexamethasone with IL-1 plus IL-6 (10 ng/ml each), 4 h", "result": "clear dose dependent enhancement"}, {"measurement": "response of SAA1 promoter to dexamethasone alone", "setting": "human SAA1 promoter; HepG2, pGL2-SAA1pt, 10 nM-1 μM, no cytokines, 4 h", "result": "Neither promoter showed any response"}, {"measurement": "enhancement of cytokine driven induction of the SAA1 promoter", "setting": "human SAA1 promoter; HepG2, pGL2-SAA1pt, co-treatment with 50 nM dexamethasone, IL-1, IL-6 or IL-1 plus IL-6 (10 ng/ml), all timepoints 3-24 h", "result": "approximately two"}, {"measurement": "response of SAA1 promoter to dexamethasone alone with GR over-expression", "setting": "human SAA1 promoter; [3]", "result": "remained non-responsive"}, {"measurement": "dexamethasone enhancement of cytokine driven SAA1 readout with GR over-expression", "setting": "human SAA1 promoter; HepG2 co-transfected with 25 or 50 ng/well CMX-GR, IL-1 plus IL-6, 4 h", "result": "could be augmented"}, {"measurement": "readout from the SAA1 promoter in cytokine-treated cells", "setting": "human SAA1 promoter; dexamethasone added to cytokine-treated cells, to a level similar to that of the SAA2 promoter", "result": "specifically enhanced"}]}
